{
  "source": "PubChem BioAssay AID1347423",
  "about": "(Functional Genomics Laboratory (NCATS/FGL), 2020)",
  "note": "Hit rate of the full screen: of about 52,000 sequences, about 210 (0.4%) were called active.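 How the source made its calls: active means gene whose silencing raises cell survival under the drug, median off-target-corrected z-score across its silencing RNAs 2 or more; inactive means the rest.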 The list shows a part of the results.",
  "data": [
    {"assay": "Resistance to Poly (ADP-Ribose) Polymerase inhibitor: Gene Identification via Genome-wide siRNA Screen", "details": "mouse BRCA2 R2336H ES cells, olaparib, CellTiter-Glo viability; stronger effect = higher value", "method_in_brief": "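Genome-wide siRNA screen (3 siRNAs/gene, 20 nM) in mouse ES cells carrying hypomorphic BRCA2 R2336H; olaparib 500 nM added 48 h post-transfection, CellTiter-Glo viability 72 h later. Normalized to plate-median negative control; MAD z-scores, gene median, seed-adjusted.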", "values": [
      {"sequence": "GGAUGAAGAUGAAAAAGAUTT against Hoxc9", "z-score": "inactive: -1.44"},
      {"sequence": "GGGCCUUCAACUUAACUUUTT against 4930504E06Rik", "z-score": "inactive: -1.91"},
      {"sequence": "GGUUGUUGCGCAAAUUUAATT against 4933425M15Rik", "z-score": "inactive: 0.535"},
      {"sequence": "GGCUUCCAGAUGGACGAGATT against Prkag3", "z-score": "inactive: -1.35"},
      {"sequence": "GGCUAUUUCUUUUUAUGCUTT against Ak4", "z-score": "inactive: 0.298"},
      {"sequence": "GGUAAAGAGCAGUGAUAUCTT against Pls3", "z-score": "inactive: 0.274"},
      {"sequence": "GGAAGAAAUUCGAUGAUGATT against Mcrs1", "z-score": "inactive: 1.11"},
      {"sequence": "GCACGCAUUAAAUUCAAAGTT against Magea9", "z-score": "inactive: 0.467"},
      {"sequence": "GGUCUUACGCAAAACGGUCTT against Csf1r", "z-score": "inactive: 0.0802"},
      {"sequence": "GGAAGAAAGAUCUAUGAACTT against 2410012M04Rik", "z-score": "inactive: 0.789"},
      {"sequence": "GGGUUAGGUUUUGAUGUAATT against Abhd5", "z-score": "inactive: 0.198"},
      {"sequence": "GCAACAUGAAGAUAAGUGCTT against Zbtb1", "z-score": "inactive: 0.522"},
      {"sequence": "GCAACUAUCUCCUAUAAGGTT against 8430416H19Rik", "z-score": "inactive: -0.334"},
      {"sequence": "CCACUUUGGUGUAUAGUCATT against Hnrpab", "z-score": "inactive: 0.572"},
      {"sequence": "CCUUCUCCAUGUCAGAUCUTT against Col5a2", "z-score": "inactive: 0.0578"},
      {"sequence": "CGCAGAAACACAGUCCACATT against Cntfr", "z-score": "inactive: 1.06"},
      {"sequence": "GGAUCCAUUGAGCUCUGUCTT against Poln", "z-score": "inactive: 1.04"},
      {"sequence": "GCCGGUUUACUGCCUAAAATT against B930037P14Rik", "z-score": "inactive: -0.585"},
      {"sequence": "GGACCUCAAGGCACUAAUATT against Car7", "z-score": "inactive: -0.82"},
      {"sequence": "GAAAGAACUGUGGCUUCCCTT against Tff2", "z-score": "inactive: -1.59"},
      {"sequence": "GCAGGAACCAUACUCUACATT against Centa1", "z-score": "inactive: -0.72"},
      {"sequence": "GGCUUGCAUCAAUAAAGAATT against Adam33", "z-score": "inactive: -1.8"},
      {"sequence": "GGAAGUGGUGAUGUAAAUATT against Tpp2", "z-score": "inactive: -0.661"},
      {"sequence": "GGCCAAAGAGUUCAGCCUATT against Prrx2", "z-score": "inactive: -1.61"},
      {"sequence": "GGAUACAUCCUUGCUGAAATT against Dapk1", "z-score": "inactive: 2.5"},
      {"sequence": "AUGUGAUAGUGCCCAGCCUTT against Olfr884", "z-score": "inactive: 1.48"},
      {"sequence": "GAAAGUGGCCGUAAAGGUGTT against Bapx1", "z-score": "inactive: -0.717"},
      {"sequence": "GGUUUGAGGUAACACUAGATT against Vps39", "z-score": "inactive: 0.816"},
      {"sequence": "GUUUCGAUUAUGUUAAAGCTT against 2210403B10Rik", "z-score": "inactive: 1.32"},
      {"sequence": "GCUCAAGGCGACCUGUAUGTT against Map3k1", "z-score": "inactive: -0.256"},
      {"sequence": "GCUCUGUUGUGGAUGCAAUTT against 2900060P06Rik", "z-score": "inactive: -0.307"},
      {"sequence": "GGAUGUGGUCUCUAUACCGTT against 1600012H06Rik", "z-score": "inactive: 1.57"},
      {"sequence": "CCUCCCAGAUUGCUCUAAUTT against 8430408G22Rik", "z-score": "inactive: -0.92"},
      {"sequence": "GCUAGUCAUUUACAGAUCATT against Spesp1", "z-score": "inactive: -1.18"},
      {"sequence": "CCAGGUCGAACAUUUAAACTT against Ifit3", "z-score": "inactive: 1.21"},
      {"sequence": "GUUUACACUUUCAGGAAUATT against Olfr1218", "z-score": "inactive: -0.469"},
      {"sequence": "GGACUACGGCAAAGAUGAGTT against Mrc2", "z-score": "inactive: -2.53"},
      {"sequence": "CCUGGACCAGAAUAAACACTT against AI413414", "z-score": "inactive: 2.47"},
      {"sequence": "GGCCUAACAGAACUGUGAGTT against P2ry2", "z-score": "inactive: -2.05"},
      {"sequence": "GGAACACAGAGAAUACAAATT against Sdccag8", "z-score": "inactive: -1.15"},
      {"sequence": "CGGUAGAAGGCUUAGGCAATT against Aox1", "z-score": "inactive: -1.97"},
      {"sequence": "GCAUGUUGAAAUCAAUUGATT against Cacnb4", "z-score": "inactive: 0.648"},
      {"sequence": "GGAGAAGGACCAUCUAAAGTT against Cmah", "z-score": "inactive: -0.0702"},
      {"sequence": "GGAAAUGAUACCUUACCACTT against 2610041B18Rik", "z-score": "inactive: -0.277"},
      {"sequence": "GCGUGAGAAAACCUUGGAUTT against Tas2r115", "z-score": "inactive: -0.768"},
      {"sequence": "GGUAAACGAUCCAGAUGCATT against A730055C05Rik", "z-score": "inactive: -0.225"},
      {"sequence": "GGAUCUGGUCUUAACUUAATT against 5830457O10Rik", "z-score": "inactive: 0.126"},
      {"sequence": "GGCAUACCGUAAAAGUGGCTT against Olfr73", "z-score": "inactive: 0.372"},
      {"sequence": "GGGUUAGACGAAGAUGAGATT against 2310065K24Rik", "z-score": "inactive: 0.908"},
      {"sequence": "GGACAUGGAUUUCAUCAUGTT against Slc35a5", "z-score": "inactive: -0.322"},
      {"sequence": "CCAAGUAUGAGGAACGAGUTT against Creb3l3", "z-score": "inactive: -0.895"},
      {"sequence": "CCCACUGCAUUACUCACUCTT against Olfr873", "z-score": "inactive: 0.69"},
      {"sequence": "CCCAUGACCUAUGUUGUAGTT against Xpc", "z-score": "inactive: -0.857"},
      {"sequence": "GGAAGAGAUGAACUCUCAGTT against Sf3b2", "z-score": "inactive: -3"},
      {"sequence": "GGGUUUAAGUAUGUUGUAATT against Exoc8", "z-score": "inactive: -0.522"},
      {"sequence": "GGAGGAGAAUUACUCCUUUTT against BC019367", "z-score": "inactive: -0.418"},
      {"sequence": "CGGAAAACGAAUAAACUACTT against Gria2", "z-score": "inactive: -0.229"},
      {"sequence": "GCUACAUUCCUCAAAUACCTT against G6pdx", "z-score": "inactive: 0.178"},
      {"sequence": "GCUAACACAACGAGAGAAGTT against Ushbp1", "z-score": "inactive: -2.54"},
      {"sequence": "GGAGUGCAAGGACUUUGUGTT against 0610009H04Rik", "z-score": "inactive: -0.5"},
      {"sequence": "GGUGGACAUGUGGAAUGAUTT against D4Bwg1540e", "z-score": "inactive: 0.377"},
      {"sequence": "GUGAAAACCGCCAGAUGAATT against V1rc27", "z-score": "inactive: 0.82"},
      {"sequence": "GCUAGAAAAUCUCUCCAACTT against Cnn2", "z-score": "inactive: -0.616"},
      {"sequence": "AUACCCAACACCUAGUAACTT against Sval3", "z-score": "inactive: -1.57"},
      {"sequence": "GGAUUAGACUGUCUUCAGCTT against Rnf144", "z-score": "inactive: 1.16"},
      {"sequence": "GGAUGACACAACUAUGACATT against Lmbr1", "z-score": "inactive: 0.859"}
    ]}
  ]
}
